From PubChem BioAssay AID330 (DTP/NCI, 2004)
The list shows only some results of the screen, not a fair sample: it is rich in T/C values a quarter to a half above the control, in often repeated tests (any T/C) and in doses without a T/C. Other doses and runs of a compound stand elsewhere. T/C is the treated group as % of the vehicle group. Some doses have a count of surviving animals in place of a T/C: the source files T/C as zero there, which appears to mark a toxic dose or a test without result, not a measured value. Some doses without a T/C left all or most animals alive at the check, yet need not have been tolerated: survival well below the control is almost never listed, so the zero probably covers shortened survival too. Counts of survivors are from the toxicity check (mostly the fifth day) where no day follows; animals may have died later. Schedule codes are those of the source, taken here to give the interval after Q, in days (D) or hours (H), and the number of doses after X. Some entries hold several experiments; the values are given in rising order. For survival time, the PubChem record calls one and a half times the control and up active, and a quarter to a half above the control has no call in these data; cut-offs in other NCI protocols can differ. Brackets with × stand for listed records that agree. Some T/C values are followed by the survivors on the day toxicity was checked, most often the fifth; without a count, all were alive then.

System: P388 leukemia ip, CD2F1 mice, survival T/C
Experiment: NCI In Vivo Anticancer Drug Screen. Data for tumor model P388 Leukemia (intraperitoneal) in CD2F1 (CDF1) mice
Details: T/C endpoint: median survival time, higher T/C = longer survival
[1] = dose: 6.25 mg/kg/injection, schedule: Q01DX009 (ip), vehicle: saline
[2] = dose: 12.5 mg/kg/injection, schedule: Q01DX009 (ip), vehicle: saline
[3] = dose: 12.5 mg/kg/injection, schedule: Q01DX009 (ip), vehicle: saline with Tween-80
[4] = dose: 400.0 mg/kg/injection, schedule: Q04DX003 (ip), vehicle: saline with Tween-80
[5] = dose: 200.0 mg/kg/injection, schedule: Q01DX009 (ip), vehicle: saline with Tween-80
[6] = dose: 240.0 mg/kg/injection, schedule: Q01DX005 (ip), vehicle: Klucel (hydroxypropylcellulose) (HPC)
[7] = dose: 100.0 mg/kg/injection, schedule: Q01DX005 (ip), vehicle: Klucel (hydroxypropylcellulose) (HPC)

`COC(=O)/C=C1\C[C@H]2C[C@]3(O)O[C@H](C[C@@H](O)CC(=O)O[C@@H]([C@@H](C)O)C[C@@H]4C/C(=C\C(=O)OC)[C@H](OC(C)=O)[C@@](O)(O4)C(C)(C)/C=C/[C@@H](C1)O2)C[C@H](OC(=O)CC(C)C)C3(C)C` was tested, and the T/C (dose: 10.0 micrograms/kg/injection, schedule: Q01DX009 (ip), vehicle: saline + alcohol) was 134 % of control.

`O=C1C=C(NCCC2CCCN3CCCCC23)C(=O)c2ccccc21` (configuration not stated) was tested, and the survivor count (dose: 100.0 mg/kg/injection, schedule: Q01DX001 (ip), vehicle: Klucel (hydroxypropylcellulose) (HPC)) was 0 of 6, the survivor count (dose: 200.0 mg/kg/injection, schedule: Q01DX001 (ip), vehicle: Klucel (hydroxypropylcellulose) (HPC)) was 0 of 6 and the survivor count (dose: 400.0 mg/kg/injection, schedule: Q01DX001 (ip), vehicle: Klucel (hydroxypropylcellulose) (HPC)) was 0 of 6.

In the case of `Cc1ncc(Cl)c2cc3ccccc3cc12`, the survivor count (dose: 100.0 mg/kg/injection, schedule: Q01DX009 (ip), vehicle: saline) is reported as 6 of 6.

For `Cc1c(COC(=O)NC(C)C)c(COC(=O)NC(C)C)c2c3ccccc3c3ccccc3n12`, the T/C (dose: 6.25 mg/kg/injection, schedule: Q01DX009 (ip), vehicle: distilled water + Tween-80) was 144 % of control.

`O=C1C=CC(=O)N1c1ccc(-c2nc3ccccc3o2)cc1` was tested, and the survivor count (dose: 50.0 mg/kg/injection, schedule: Q01DX005 (ip), vehicle: saline with Tween-80) was 3 of 5 and the survivor count (dose: 100.0 mg/kg/injection, schedule: Q01DX005 (ip), vehicle: saline with Tween-80) was 0 of 5 and 1 of 5.

For `CS(=O)(=O)c1nsc(N)n1`, the T/C [1] was 96, 100, 101 % of control, the survivor count [1] was 5 of 6 and the T/C [2] was 103 % of control (2×). For the same molecule, the survivor count [2] was 5 of 6 and 6 of 6, the T/C (dose: 25.0 mg/kg/injection, schedule: Q01DX009 (ip), vehicle: saline) was 88, 97, 104, 105 % of control and the T/C (dose: 50.0 mg/kg/injection, schedule: Q01DX009 (ip), vehicle: saline) was 93, 96, 97, 100 % of control.

For `C=CCOc1cc2c(cc1OCC=C)C(=O)c1cc3c(cc1C2=O)OCO3`, the survivor count (dose: 30.0 mg/kg/injection, schedule: Q01DX005 (ip), vehicle: saline with Tween-80) was 6 of 6, the survivor count (dose: 60.0 mg/kg/injection, schedule: Q01DX005 (ip), vehicle: saline with Tween-80) was 6 of 6 and the survivor count (dose: 120.0 mg/kg/injection, schedule: Q01DX005 (ip), vehicle: saline with Tween-80) was 6 of 6. The survivor count (dose: 240.0 mg/kg/injection, schedule: Q01DX005 (ip), vehicle: saline with Tween-80) was 6 of 6.

In the case of `CCc1nc2nc(C)cc(C)n2n1`, the survivor count [3] is reported as 6 of 6.

In the case of `O=C1NC(=O)C2(CCCC2=Nc2ccc(Br)cc2)C2C=CN(Cc3ccccc3)C=C12` (configuration not stated), the survivor count (dose: 400.0 mg/kg/injection, schedule: Q04DX003 (ip), vehicle: saline) is reported as 3 of 6.

For `Cc1ccc2c(ccc3c[n+]4ccccc4c(C)c32)c1`, the survivor count (dose: 33.0 mg/kg/injection, schedule: Q04DX003 (ip), vehicle: saline with Tween-80) was 5 of 6, the survivor count (dose: 50.0 mg/kg/injection, schedule: Q04DX003 (ip), vehicle: other) was 0 of 6 and the survivor count (dose: 50.0 mg/kg/injection, schedule: Q04DX003 (ip), vehicle: saline with Tween-80) was 5 of 6. For the same molecule, the survivor count (dose: 75.0 mg/kg/injection, schedule: Q04DX003 (ip), vehicle: saline with Tween-80) was 5 of 6 and the survivor count (dose: 100.0 mg/kg/injection, schedule: Q04DX003 (ip), vehicle: other) was 0 of 6.

`COc1cccc2c1C(=N)c1c(O)c3c(c(O)c1C2=O)C[C@@](O)(C(C)=O)C[C@@H]3OC1CC(N)C(O)C(C)O1` (some centres not stated) was tested, and the T/C (dose: 0.25 mg/kg/injection, schedule: Q01DX009 (ip), vehicle: water) was 137 and 138 % of control, the T/C (dose: 0.5 mg/kg/injection, schedule: Q01DX009 (ip), vehicle: saline) was 146 % of control and the T/C (dose: 0.5 mg/kg/injection, schedule: Q01DX009 (ip), vehicle: water) was 137 % of control. For the same molecule, the T/C (dose: 1.5 mg/kg/injection, schedule: Q04DX003 (ip), vehicle: water) was 133 % of control [5 of 6 alive], the T/C (dose: 1.94 mg/kg/injection, schedule: Q04DX003 (ip), vehicle: water) was 137 % of control and the T/C (dose: 3.0 mg/kg/injection, schedule: Q04DX003 (ip), vehicle: water) was 136 % of control. The T/C (dose: 4.0 mg/kg/injection, schedule: Q01DX009 (ip), vehicle: saline) was 140 % of control, the T/C (dose: 12.0 mg/kg/injection, schedule: Q04DX003 (ip), vehicle: water) was 130 % of control and the survivor count (dose: 16.0 mg/kg/injection, schedule: Q01DX009 (ip), vehicle: water) was 6 of 6. The T/C (dose: 24.0 mg/kg/injection, schedule: Q04DX003 (ip), vehicle: water) was 130 % of control and the T/C (dose: 48.0 mg/kg/injection, schedule: Q04DX003 (ip), vehicle: water) was 125 % of control.

With `CC1(C)N=C(N)N=C(N)N1c1cccc(CC(=O)Nc2ccc(S(=O)(=O)F)cc2)c1` the T/C [3] was 130 % of control, the T/C (dose: 25.0 mg/kg/injection, schedule: Q01DX009 (ip), vehicle: saline with Tween-80) was 145 % of control and the T/C (dose: 50.0 mg/kg/injection, schedule: Q01DX009 (ip), vehicle: saline with Tween-80) was 140 % of control [5 of 6 alive]. The T/C (dose: 66.0 mg/kg/injection, schedule: Q01DX009 (ip), vehicle: saline with Tween-80) was 136 % of control, the T/C (dose: 100.0 mg/kg/injection, schedule: Q01DX009 (ip), vehicle: saline with Tween-80) was 145 % of control and the T/C (dose: 100.0 mg/kg/injection, schedule: Q04DX003 (ip), vehicle: saline with Tween-80) was 127 % of control. For the same molecule, the T/C (dose: 150.0 mg/kg/injection, schedule: Q01DX009 (ip), vehicle: saline with Tween-80) was 145 % of control, the survivor count (dose: 264.0 mg/kg/injection, schedule: Q04DX003 (ip), vehicle: saline with Tween-80) was 1 of 6 and the T/C [4] was 131 % of control. The survivor count [4] was 1 of 6 and the survivor count (dose: 600.0 mg/kg/injection, schedule: Q04DX003 (ip), vehicle: saline with Tween-80) was 0 of 6.

For `COC1/C=C/OC2(C)Oc3c(C)c(O)c4c(O)c(c(/C=N/N5CC(C)(C)N(Cc6ccccc6)CC5(C)C)c(O)c4c3C2=O)NC(=O)C(C)=C/C=C/C(C)C(O)C(C)C(O)C(C)C(OC(C)=O)C1C` (configuration not stated), the survivor count [5] was 6 of 6.

For `O=[N+]([O-])c1ccc2c(N=Nc3ccc4ccccc4c3O)c(O)cc(S(=O)(=O)O)c2c1`, the survivor count [5] was 5 of 6 and the survivor count (dose: 400.0 mg/kg/injection, schedule: Q01DX009 (ip), vehicle: saline with Tween-80) was 3 of 6.

`CC(=O)Oc1c(C)c(OC(C)=O)c2c(c1C(C)=O)OC1CC(=O)C(C(C)=O)=C(O)C21C` (configuration not stated) was tested, and the survivor count (dose: 25.0 mg/kg/injection, schedule: Q01DX009 (ip), vehicle: gum acacia) was 6 of 6 and the survivor count (dose: 200.0 mg/kg/injection, schedule: Q01DX009 (ip), vehicle: gum acacia) was 3 of 6 and 4 of 6.

With `COc1cc(OC)cc(C2OC3=C(Nc4ccccc4N3)C2=O)c1` (configuration not stated) the survivor count [6] was 6 of 6.

For `[O-][n+]1c2ccccc2cc2c1c1ccccc1n2O`, the survivor count [7] was 2 of 6 and the survivor count (dose: 200.0 mg/kg/injection, schedule: Q01DX005 (ip), vehicle: Klucel (hydroxypropylcellulose) (HPC)) was 0 of 6.

In the case of `COc1cc(-c2ccc(O)cc2)c(OC)c(O)c1-c1ccc(O)c(O)c1`, the survivor count (dose: 0.15 mg/kg/injection, schedule: Q01DX009 (ip), vehicle: saline) is reported as 6 of 6 and the survivor count (dose: 0.3 mg/kg/injection, schedule: Q01DX009 (ip), vehicle: saline) is reported as 6 of 6.

With `CCN(CC)Cc1cc(C)c(O)c(N=Nc2ccc3ccc4cccc5ccc2c3c45)c1C` the T/C [5] was 125 % of control [5 of 6 alive].

For `O=C1C2=C(Nc3cc([N+](=O)[O-])ccc3N2)OC1c1ccc(Cl)cc1Cl` (configuration not stated), the survivor count (dose: 120.0 mg/kg/injection, schedule: Q01DX005 (ip), vehicle: Klucel (hydroxypropylcellulose) (HPC)) was 6 of 6.

In the case of `Cn1nnnc1-c1ccc(C(=O)O)cc1`, the survivor count [7] is reported as 5 of 5.

In the case of `COc1cccc2c1C(=O)c1c(O)c3c(c(O)c1C2=O)CC(O)(c1cscn1)CC3OC1CC(N)C(O)C(C)O1` (configuration not stated), the survivor count (dose: 200.0 mg/kg/injection, schedule: Q04DX003 (ip), vehicle: water) is reported as 1 of 3.

In the case of `O=C(O)C1C2c3ccccc3C(c3ccccc32)C1C(=O)NCC1CC1` (configuration not stated), the survivor count [6] is reported as 0 of 6.
